## Percent effect of library compounds

Each number is a percent effect as filed. The controls that fix the scale are not given in the record; negative values are as filed. This is an unselected part of the compounds tested. Two or more numbers in one place are separate tests of the same structure; such repeats can differ widely.

Mtb cholesterol medium: 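Growth of Mycobacterium tuberculosis over 4 days (cholesterol / DPPC medium with tyloxapol); the read-out is not stated. Compounds at 50 µM. The record gives no direction; compounds that gave an IC50 in retests scored well above the rest, so higher reads as more growth inhibition. Size under these conditions: about 69,000 compounds, about 370 of them at 50% or above in at least one test.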
Mtb glucose medium: 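Whole-cell growth test on Mycobacterium tuberculosis, read after 3 days in glucose-containing 7H9 medium; the read-out is not stated. Concentration: 50 µM. Higher reads as more growth inhibition (inferred: compounds with an IC50 in retests scored well above the rest). Of about 69,000 compounds tested this way, about 760 (1.1%) reached 50% or more in at least one test.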

Cn1cc2c(n1)C(COCC1CC1)CN(Cc1ccccn1)C2 (stereo not given) gave Mtb cholesterol medium: -11.54%; Mtb glucose medium: -9.859%.
CN(CCc1ccccn1)C(=O)CCC1CCCN(c2cnccn2)C1 (stereo not given) gave Mtb cholesterol medium: -5.177%; Mtb glucose medium: 1.689%.
[H][C@]12CN(Cc3ccco3)CCN1C[C@H](c1ccccc1)[C@H]2C(=O)NC gave Mtb cholesterol medium: -15.74%; Mtb glucose medium: -17.19%.
O=C(C[S+]([O-])Cc1csc(C2CCCC2)n1)Nc1ccccc1 (stereo not given) gave Mtb cholesterol medium: 11.36%; Mtb glucose medium: 22.4%.
Cc1cc(C(=O)NCCC2CN(C)CCO2)c2cccc(C)c2n1 (stereo not given) gave Mtb cholesterol medium: -6.543%; Mtb glucose medium: 8.808%.
Cc1nc(CN2CCN(C)C(=O)C23CCN(CC2CCCC2)CC3)cs1 gave Mtb cholesterol medium: -4.482%; Mtb glucose medium: 8.346%.
CSc1ccc(OCCN2CCNC(=O)CC2)cc1 gave Mtb cholesterol medium: 15.24%; Mtb glucose medium: 14.83%.
COc1cccc(CN2CCCC2Cn2nc(C)nc2C)c1 (stereo not given) gave Mtb cholesterol medium: -20.28%; Mtb glucose medium: -29.96%.
COC(C)c1nc(CN2CCCNCC2)cs1 (stereo not given) gave Mtb cholesterol medium: 13.31% and -2.941%; Mtb glucose medium: 14.73%.
CN1CCCC(CNC(=O)CN(C)S(=O)(=O)c2cccnc2)C1 (stereo not given) gave Mtb cholesterol medium: -29%; Mtb glucose medium: 0.9103%.
CNC(=O)C(C)CN(C)C(=O)Nc1cc(F)cc(Br)c1 (stereo not given) gave Mtb cholesterol medium: -16.87%; Mtb glucose medium: 12.06% and 1.783%.
COc1cccc(COCC(=O)N2CCCCCC2)c1 gave Mtb cholesterol medium: -10.42%; Mtb glucose medium: -2.463%.
O=C(CCc1ccccc1)C1CCCN(C(=O)c2ncc(F)cc2F)C1 (stereo not given) gave Mtb cholesterol medium: -9.517%; Mtb glucose medium: -17.56% and -6.38%.
CC(C)(C)OC(=O)N1CCC(NC2CC2)CC1 gave Mtb cholesterol medium: 5.466%; Mtb glucose medium: -3.133% and 3.889%.
COc1ccccc1C(C)(C)NCc1ccco1 gave Mtb cholesterol medium: -1.729%; Mtb glucose medium: 2.39%.
COCC(=O)NCCSCCOc1cccc(Br)c1 gave Mtb cholesterol medium: -33.87%; Mtb glucose medium: -36.27%.
Cc1cc(C(=O)N2CCCC(n3cncn3)C2)nn1C (stereo not given) gave Mtb cholesterol medium: 9.934%; Mtb glucose medium: 11.71%.
CCn1cnnc1CNC(=O)N1CCN(C(C)C)CC1 gave Mtb cholesterol medium: -16.94%; Mtb glucose medium: -15.3%.
NC(=O)Nc1cccc(C(=O)N(Cc2ccc(F)cc2)C2CC2)c1 gave Mtb cholesterol medium: -1.066%; Mtb glucose medium: -0.06113%.
Cc1ccc(S(=O)(=O)NC2=NCN(CCc3cccs3)CN2)cc1 gave Mtb cholesterol medium: -16.5%; Mtb glucose medium: -21.42%.
COc1ccc(CN2CCc3c(CNC(=O)CC#N)nn(C)c3C2)cc1.O=C(O)C(F)(F)F.O=C(O)C(F)(F)F gave Mtb cholesterol medium: -1.963%; Mtb glucose medium: 5.745% and -4.191%.
COc1cccc(CNC(=O)c2ccccc2-n2cnc(CN)c2)c1 gave Mtb cholesterol medium: -9.8%; Mtb glucose medium: -7.59%.
CC(C)c1noc(CCNC(=O)NCC2COc3ccccc3O2)n1 (stereo not given) gave Mtb cholesterol medium: -5.429% and 0.2892%; Mtb glucose medium: -4.321%.
c1ccc(-c2nccc(CNCC3CCCN3c3cccnn3)n2)cc1 (stereo not given) gave Mtb cholesterol medium: 1.215%; Mtb glucose medium: -13.44%.
CN(Cc1ccc(N(C)C)cc1)C(=O)CSc1ccc(Br)cc1 gave Mtb cholesterol medium: 13.85%; Mtb glucose medium: -13.8%.
Cc1cc(-c2ccc(=O)n(CCNC(=O)C3CC3)n2)c(C)o1 gave Mtb cholesterol medium: 12.03% and 1.662%; Mtb glucose medium: 8.351%.

Data taken from ChEMBL document CHEMBL3988442, “University of Dundee, Small-Polar-MMV Screening Library” (2021).